The target of this assay is Lymphocyte function-associated antigen 1 (human (endogenous in monocyte-derived DCs and monocytes)) (UniProt P20701+P05107). The assay can be described thus: co-IP; LFA-1 precipitated from the post nuclear supernatant of day 6 imDCs with SPV-L7 (anti-αL), mIgG1 coated beads as control IP; Western blot, non-reducing conditions; lysis buffer not told. Background: Immunoblotting shows a protein as a band on a membrane.

The chains behind the UniProt entries cited, without tags or fusion partners. Where a name states a change or a piece, a line headed by the entry shows the natural chain unless it says otherwise. Residues count along the entry.
UniProt P20701: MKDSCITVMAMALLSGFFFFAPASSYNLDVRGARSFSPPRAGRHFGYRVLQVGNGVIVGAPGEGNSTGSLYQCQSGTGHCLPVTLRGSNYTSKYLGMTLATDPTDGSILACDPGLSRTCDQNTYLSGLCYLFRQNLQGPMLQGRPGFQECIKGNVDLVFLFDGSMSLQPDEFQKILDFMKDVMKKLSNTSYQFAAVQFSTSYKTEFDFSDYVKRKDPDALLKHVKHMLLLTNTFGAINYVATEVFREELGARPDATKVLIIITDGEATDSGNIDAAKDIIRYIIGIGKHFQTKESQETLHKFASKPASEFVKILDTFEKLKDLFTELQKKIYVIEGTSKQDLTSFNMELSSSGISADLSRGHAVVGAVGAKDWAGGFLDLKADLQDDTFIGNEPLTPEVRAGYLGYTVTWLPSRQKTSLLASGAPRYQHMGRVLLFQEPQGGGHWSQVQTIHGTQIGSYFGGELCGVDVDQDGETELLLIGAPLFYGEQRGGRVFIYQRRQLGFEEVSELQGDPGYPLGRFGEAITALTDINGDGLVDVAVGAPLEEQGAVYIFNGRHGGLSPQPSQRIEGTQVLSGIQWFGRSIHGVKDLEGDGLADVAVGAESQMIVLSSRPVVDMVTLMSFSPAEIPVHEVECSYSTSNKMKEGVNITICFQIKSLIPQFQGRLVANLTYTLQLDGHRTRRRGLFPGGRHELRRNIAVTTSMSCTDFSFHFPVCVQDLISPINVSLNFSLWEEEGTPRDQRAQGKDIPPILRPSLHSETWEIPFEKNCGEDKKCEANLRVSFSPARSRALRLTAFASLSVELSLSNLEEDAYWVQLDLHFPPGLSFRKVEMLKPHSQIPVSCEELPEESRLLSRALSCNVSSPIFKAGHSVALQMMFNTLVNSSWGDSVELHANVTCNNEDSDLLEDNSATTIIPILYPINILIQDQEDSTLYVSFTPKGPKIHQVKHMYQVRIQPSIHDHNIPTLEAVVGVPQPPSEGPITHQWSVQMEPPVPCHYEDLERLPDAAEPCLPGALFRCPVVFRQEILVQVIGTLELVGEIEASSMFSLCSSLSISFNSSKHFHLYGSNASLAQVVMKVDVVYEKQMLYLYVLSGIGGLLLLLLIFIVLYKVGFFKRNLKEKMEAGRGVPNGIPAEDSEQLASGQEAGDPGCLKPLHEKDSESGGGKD
UniProt P05107: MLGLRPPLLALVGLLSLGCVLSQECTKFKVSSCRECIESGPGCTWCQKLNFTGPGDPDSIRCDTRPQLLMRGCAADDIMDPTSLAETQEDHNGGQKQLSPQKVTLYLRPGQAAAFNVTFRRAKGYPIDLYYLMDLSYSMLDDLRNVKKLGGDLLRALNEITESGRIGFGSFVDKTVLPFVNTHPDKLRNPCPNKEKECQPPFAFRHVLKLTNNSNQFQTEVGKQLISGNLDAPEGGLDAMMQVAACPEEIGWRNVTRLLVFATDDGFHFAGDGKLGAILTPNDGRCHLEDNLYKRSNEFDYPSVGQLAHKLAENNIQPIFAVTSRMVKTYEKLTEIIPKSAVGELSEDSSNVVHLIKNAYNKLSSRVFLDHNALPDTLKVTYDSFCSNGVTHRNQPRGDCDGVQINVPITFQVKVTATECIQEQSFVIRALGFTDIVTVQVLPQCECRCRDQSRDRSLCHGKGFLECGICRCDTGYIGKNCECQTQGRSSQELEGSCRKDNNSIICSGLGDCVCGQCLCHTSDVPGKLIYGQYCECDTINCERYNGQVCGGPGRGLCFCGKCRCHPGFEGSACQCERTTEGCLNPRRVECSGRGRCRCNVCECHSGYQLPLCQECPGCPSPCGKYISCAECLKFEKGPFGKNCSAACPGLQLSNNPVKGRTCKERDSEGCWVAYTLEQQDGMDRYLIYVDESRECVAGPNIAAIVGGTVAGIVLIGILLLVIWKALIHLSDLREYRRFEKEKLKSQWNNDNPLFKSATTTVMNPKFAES
UniProt P07996, residues 19-1170: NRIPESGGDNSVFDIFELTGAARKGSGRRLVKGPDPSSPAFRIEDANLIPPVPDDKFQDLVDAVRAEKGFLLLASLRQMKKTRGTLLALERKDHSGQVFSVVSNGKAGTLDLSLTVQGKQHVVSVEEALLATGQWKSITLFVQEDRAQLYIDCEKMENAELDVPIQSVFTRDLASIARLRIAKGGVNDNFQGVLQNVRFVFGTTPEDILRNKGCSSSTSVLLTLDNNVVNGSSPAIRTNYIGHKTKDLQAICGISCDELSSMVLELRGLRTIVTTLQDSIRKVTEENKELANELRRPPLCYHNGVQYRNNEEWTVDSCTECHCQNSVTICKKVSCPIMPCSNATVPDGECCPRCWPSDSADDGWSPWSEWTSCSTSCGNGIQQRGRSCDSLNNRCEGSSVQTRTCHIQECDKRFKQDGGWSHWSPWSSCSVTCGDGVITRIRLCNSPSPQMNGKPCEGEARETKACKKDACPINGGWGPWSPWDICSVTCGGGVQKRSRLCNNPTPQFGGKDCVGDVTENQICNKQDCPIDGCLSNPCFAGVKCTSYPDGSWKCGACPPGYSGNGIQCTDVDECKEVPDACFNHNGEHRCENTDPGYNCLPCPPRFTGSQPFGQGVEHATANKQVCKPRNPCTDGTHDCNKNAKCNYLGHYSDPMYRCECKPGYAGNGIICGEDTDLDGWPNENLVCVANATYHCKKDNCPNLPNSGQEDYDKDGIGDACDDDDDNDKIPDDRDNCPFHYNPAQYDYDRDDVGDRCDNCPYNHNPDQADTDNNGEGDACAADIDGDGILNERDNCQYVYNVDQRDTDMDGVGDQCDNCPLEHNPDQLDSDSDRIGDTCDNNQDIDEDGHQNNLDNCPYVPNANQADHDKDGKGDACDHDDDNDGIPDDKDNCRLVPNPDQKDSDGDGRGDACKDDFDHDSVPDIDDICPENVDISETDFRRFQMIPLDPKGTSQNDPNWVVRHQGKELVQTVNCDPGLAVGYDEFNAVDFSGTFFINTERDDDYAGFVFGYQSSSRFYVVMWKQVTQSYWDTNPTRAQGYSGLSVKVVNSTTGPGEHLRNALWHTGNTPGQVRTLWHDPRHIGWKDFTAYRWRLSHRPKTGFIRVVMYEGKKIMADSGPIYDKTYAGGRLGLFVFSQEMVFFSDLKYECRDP

Results are given in words; binding and its absence hold for the method and conditions named. Binding seen in cells or lysates may run through a third protein. Some entries that bind do so weakly or less than the wild type.

With “thrombospondin-1 (from UniProt P07996 19-1170)”, the binding entry is on record as “binds”.

Values taken from paper PMC4758637.
